Residues, ends and D or L forms follow the SMILES beside them.
Tested on: E. coli CCUG 70662 live cells
Assay: Live cell NMR (1H signal attenuation on cell titration)
Assay type: binding
Conditions: fit parameter of Equation (6)
[1] = E. coli CCUG 70662+ (grown with 4 µg/mL colistin)
[2] = E. coli CCUG 70662- (grown without colistin)

SMILES	γB/γF-1 ratio (line widths of bound and free AMP, from fit) [1]	γB/γF-1 ratio (line widths of bound and free AMP, from fit) [2]
CC(C)C[C@@H]1NC(=O)[C@@H](CCCNC(=N)N)NC(=O)[C@H](CCCCN)NC(=O)[C@H](CC(N)=O)NC(=O)[C@@H](Cc2c[nH]c3ccccc23)NC(=O)[C@H](Cc2c[nH]c3ccccc23)NC1=O [c(LWwNKr)] (HELM PEPTIDE1{L.W.[dW].N.K.[dR]}$PEPTIDE1,PEPTIDE1,1:R1-6:R2$$$V2.0)	4.990	5.202
N=C(N)NCCC[C@@H]1NC(=O)[C@H](Cc2c[nH]c3ccccc23)NC(=O)[C@H](CCCNC(=N)N)NC(=O)[C@H](Cc2c[nH]c3ccccc23)NC(=O)[C@H](CCCNC(=N)N)NC(=O)[C@H](Cc2c[nH]c3ccccc23)NC1=O [c(WRWRWR)] (HELM PEPTIDE1{W.R.W.R.W.R}$PEPTIDE1,PEPTIDE1,1:R1-6:R2$$$V2.0)	1.062	0.549
NCCCC[C@@H]1NC(=O)[C@H](Cc2c[nH]c3ccccc23)NC(=O)[C@H](CCCCN)NC(=O)[C@H](Cc2c[nH]c3ccccc23)NC(=O)[C@H](CCCCN)NC(=O)[C@H](Cc2c[nH]c3ccccc23)NC1=O [c(WKWKWK)] (HELM PEPTIDE1{W.K.W.K.W.K}$PEPTIDE1,PEPTIDE1,1:R1-6:R2$$$V2.0)	0.295	0.170
NCCCC[C@@H]1NC(=O)[C@H](CCCCN)NC(=O)[C@H](Cc2c[nH]c3ccccc23)NC(=O)[C@H](Cc2c[nH]c3ccccc23)NC(=O)[C@H](Cc2c[nH]c3ccccc23)NC(=O)[C@H](CCCCN)NC1=O [c(WWWKKK)] (HELM PEPTIDE1{W.W.W.K.K.K}$PEPTIDE1,PEPTIDE1,1:R1-6:R2$$$V2.0)	0.197	0.317
N=C(N)NCCC[C@@H]1NC(=O)[C@H](CCCNC(=N)N)NC(=O)[C@H](Cc2c[nH]c3ccccc23)NC(=O)[C@H](Cc2c[nH]c3ccccc23)NC(=O)[C@H](Cc2c[nH]c3ccccc23)NC(=O)[C@H](CCCNC(=N)N)NC1=O [c(WWWRRR)] (HELM PEPTIDE1{W.W.W.R.R.R}$PEPTIDE1,PEPTIDE1,1:R1-6:R2$$$V2.0)	0.238	0.473

Source: article PMC10377513, “Goldilocks Dilemma: LPS Works Both as the Initial Target and a Barrier for the Antimicrobial Action of Cationic AMPs on E. coli” (Biomolecules, 2023)
